Measured values from the supplement of paper PMC10849652.
The other results are listed elsewhere or left out.

Sequences of proteins named here, by UniProt entry; tags and fusion partners are left off. A change or cut given only in a name is not applied to a line headed by its entry.
UniProt Q9NUY8: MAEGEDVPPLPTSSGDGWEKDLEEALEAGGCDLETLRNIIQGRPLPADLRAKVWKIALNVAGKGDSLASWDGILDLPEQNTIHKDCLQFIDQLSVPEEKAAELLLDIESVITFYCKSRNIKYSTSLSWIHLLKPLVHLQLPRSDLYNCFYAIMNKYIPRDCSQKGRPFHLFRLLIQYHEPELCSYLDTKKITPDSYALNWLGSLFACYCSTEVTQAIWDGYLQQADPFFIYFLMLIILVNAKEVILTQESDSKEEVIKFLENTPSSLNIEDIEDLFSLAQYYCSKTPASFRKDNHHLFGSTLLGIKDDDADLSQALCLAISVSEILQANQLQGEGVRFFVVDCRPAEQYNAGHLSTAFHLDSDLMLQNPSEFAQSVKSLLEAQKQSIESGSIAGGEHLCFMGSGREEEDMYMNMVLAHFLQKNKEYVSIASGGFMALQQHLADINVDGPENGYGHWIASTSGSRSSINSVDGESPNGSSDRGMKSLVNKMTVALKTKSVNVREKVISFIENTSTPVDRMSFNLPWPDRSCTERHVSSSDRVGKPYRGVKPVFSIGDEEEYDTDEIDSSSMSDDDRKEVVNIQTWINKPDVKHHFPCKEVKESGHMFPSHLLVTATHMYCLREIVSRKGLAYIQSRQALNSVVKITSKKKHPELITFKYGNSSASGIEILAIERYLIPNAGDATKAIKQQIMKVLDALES
UniProt Q9UBB9: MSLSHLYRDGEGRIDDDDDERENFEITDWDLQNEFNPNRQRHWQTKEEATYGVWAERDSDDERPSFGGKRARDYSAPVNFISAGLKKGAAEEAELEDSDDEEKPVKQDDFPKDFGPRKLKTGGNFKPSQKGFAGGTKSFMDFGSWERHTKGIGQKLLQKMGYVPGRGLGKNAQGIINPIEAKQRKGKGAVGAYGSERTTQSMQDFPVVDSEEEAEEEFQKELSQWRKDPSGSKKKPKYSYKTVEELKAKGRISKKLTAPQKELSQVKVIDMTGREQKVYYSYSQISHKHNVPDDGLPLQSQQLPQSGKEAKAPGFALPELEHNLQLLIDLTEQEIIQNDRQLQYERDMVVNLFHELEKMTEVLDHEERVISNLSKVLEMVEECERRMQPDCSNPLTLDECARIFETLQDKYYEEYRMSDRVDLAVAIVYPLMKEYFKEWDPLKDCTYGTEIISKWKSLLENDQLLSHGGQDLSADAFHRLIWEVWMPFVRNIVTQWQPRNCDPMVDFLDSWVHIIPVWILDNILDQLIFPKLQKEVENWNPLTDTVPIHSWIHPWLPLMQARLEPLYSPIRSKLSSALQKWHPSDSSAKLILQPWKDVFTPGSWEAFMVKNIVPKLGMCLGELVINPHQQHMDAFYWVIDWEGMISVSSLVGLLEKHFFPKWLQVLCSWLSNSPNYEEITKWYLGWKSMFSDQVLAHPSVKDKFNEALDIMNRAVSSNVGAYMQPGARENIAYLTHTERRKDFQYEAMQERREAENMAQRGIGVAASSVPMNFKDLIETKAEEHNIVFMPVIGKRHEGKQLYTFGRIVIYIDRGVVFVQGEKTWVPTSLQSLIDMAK
UniProt Q96BW9: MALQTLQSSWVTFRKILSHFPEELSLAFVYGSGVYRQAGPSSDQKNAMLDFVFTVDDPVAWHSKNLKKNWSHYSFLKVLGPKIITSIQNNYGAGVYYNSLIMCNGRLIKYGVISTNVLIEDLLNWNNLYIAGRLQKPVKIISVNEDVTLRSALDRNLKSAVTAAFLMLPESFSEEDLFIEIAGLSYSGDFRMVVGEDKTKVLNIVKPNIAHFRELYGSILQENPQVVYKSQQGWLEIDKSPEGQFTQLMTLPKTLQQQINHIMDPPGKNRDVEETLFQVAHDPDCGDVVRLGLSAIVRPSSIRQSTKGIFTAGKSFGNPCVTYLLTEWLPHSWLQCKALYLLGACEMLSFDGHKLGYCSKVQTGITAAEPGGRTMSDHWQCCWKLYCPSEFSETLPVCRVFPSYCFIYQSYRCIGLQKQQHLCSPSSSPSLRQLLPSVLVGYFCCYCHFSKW
UniProt O75347: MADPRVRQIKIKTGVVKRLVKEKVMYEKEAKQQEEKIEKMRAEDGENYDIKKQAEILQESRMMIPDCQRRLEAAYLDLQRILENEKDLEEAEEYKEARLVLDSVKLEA
UniProt Q9UPU7: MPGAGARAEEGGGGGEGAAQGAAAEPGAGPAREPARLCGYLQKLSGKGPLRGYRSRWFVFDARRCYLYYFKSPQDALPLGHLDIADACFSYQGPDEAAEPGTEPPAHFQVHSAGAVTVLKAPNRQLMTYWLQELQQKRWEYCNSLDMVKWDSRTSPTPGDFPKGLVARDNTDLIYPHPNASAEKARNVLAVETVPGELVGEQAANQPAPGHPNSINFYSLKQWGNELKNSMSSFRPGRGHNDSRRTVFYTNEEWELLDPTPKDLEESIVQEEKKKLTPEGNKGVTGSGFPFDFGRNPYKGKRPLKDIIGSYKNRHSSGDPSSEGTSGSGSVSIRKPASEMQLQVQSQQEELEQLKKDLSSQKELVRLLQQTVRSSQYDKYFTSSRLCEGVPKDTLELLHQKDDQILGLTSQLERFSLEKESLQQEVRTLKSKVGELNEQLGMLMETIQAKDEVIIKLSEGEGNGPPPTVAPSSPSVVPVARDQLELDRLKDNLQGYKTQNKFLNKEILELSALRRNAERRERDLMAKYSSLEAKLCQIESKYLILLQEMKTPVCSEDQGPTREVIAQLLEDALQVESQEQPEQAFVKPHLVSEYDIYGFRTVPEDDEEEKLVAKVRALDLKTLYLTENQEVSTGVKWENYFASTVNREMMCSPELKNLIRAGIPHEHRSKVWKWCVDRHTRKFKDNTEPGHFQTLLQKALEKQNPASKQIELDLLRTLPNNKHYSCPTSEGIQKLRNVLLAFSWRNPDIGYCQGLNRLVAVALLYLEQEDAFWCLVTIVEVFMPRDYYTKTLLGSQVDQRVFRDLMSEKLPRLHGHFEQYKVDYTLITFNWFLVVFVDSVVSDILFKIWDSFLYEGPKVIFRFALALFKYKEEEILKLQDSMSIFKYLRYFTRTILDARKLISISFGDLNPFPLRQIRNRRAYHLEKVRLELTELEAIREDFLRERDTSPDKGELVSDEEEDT
UniProt Q96BS2: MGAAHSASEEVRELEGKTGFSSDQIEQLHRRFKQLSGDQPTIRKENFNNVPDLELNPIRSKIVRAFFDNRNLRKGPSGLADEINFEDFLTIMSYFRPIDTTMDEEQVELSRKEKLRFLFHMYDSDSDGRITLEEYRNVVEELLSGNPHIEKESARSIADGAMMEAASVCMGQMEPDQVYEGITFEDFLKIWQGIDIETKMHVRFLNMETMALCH
UniProt Q9Y4C2: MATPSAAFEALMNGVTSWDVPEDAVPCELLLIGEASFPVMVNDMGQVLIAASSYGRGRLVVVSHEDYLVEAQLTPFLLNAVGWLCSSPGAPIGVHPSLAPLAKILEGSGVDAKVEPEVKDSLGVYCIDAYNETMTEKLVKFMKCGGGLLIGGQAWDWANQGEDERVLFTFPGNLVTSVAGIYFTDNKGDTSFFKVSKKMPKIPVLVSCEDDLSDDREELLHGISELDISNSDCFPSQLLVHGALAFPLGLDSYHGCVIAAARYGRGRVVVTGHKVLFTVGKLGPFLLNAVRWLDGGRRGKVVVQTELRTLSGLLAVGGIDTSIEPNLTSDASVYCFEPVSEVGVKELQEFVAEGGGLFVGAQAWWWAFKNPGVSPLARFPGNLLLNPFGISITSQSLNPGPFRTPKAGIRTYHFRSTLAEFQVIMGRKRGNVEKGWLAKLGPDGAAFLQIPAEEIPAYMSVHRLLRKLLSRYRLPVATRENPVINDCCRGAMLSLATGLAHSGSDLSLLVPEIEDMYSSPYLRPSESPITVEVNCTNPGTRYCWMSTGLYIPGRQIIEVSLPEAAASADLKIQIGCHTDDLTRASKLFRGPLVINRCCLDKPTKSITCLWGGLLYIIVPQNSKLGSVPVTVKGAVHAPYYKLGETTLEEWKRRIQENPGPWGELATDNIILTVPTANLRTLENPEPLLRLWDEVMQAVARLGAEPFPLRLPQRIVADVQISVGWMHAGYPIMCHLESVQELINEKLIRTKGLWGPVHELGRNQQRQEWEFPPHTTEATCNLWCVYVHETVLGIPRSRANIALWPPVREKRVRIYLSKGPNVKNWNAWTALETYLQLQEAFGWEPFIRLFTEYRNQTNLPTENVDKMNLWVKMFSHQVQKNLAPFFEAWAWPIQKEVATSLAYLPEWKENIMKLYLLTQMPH
UniProt P26639: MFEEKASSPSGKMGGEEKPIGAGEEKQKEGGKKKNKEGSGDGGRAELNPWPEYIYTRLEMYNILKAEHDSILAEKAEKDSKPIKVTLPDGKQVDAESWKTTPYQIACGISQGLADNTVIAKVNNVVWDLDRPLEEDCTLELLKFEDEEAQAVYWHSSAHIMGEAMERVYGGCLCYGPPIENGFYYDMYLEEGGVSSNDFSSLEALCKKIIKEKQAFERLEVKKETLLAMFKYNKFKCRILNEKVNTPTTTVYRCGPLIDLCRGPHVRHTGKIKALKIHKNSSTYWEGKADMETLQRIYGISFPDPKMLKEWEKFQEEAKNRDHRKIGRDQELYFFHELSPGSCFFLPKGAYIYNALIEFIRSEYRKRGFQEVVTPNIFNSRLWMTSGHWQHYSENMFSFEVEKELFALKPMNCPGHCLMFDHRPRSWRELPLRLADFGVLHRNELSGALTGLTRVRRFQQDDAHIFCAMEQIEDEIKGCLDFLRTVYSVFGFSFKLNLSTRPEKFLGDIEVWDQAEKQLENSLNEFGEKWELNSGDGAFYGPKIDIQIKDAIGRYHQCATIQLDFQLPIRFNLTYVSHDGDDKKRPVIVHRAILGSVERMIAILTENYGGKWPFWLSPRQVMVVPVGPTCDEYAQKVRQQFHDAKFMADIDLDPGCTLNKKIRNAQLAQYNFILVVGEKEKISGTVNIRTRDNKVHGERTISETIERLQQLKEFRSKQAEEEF
UniProt Q15814: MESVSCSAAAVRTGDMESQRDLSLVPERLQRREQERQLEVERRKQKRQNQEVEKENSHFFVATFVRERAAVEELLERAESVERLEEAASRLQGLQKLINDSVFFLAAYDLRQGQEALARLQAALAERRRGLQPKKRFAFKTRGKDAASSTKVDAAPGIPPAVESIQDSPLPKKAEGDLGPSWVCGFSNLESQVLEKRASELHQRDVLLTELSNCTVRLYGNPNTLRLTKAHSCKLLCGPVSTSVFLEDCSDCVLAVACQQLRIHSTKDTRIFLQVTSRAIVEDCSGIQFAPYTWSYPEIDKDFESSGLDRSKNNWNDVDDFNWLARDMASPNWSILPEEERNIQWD
UniProt Q9HA65: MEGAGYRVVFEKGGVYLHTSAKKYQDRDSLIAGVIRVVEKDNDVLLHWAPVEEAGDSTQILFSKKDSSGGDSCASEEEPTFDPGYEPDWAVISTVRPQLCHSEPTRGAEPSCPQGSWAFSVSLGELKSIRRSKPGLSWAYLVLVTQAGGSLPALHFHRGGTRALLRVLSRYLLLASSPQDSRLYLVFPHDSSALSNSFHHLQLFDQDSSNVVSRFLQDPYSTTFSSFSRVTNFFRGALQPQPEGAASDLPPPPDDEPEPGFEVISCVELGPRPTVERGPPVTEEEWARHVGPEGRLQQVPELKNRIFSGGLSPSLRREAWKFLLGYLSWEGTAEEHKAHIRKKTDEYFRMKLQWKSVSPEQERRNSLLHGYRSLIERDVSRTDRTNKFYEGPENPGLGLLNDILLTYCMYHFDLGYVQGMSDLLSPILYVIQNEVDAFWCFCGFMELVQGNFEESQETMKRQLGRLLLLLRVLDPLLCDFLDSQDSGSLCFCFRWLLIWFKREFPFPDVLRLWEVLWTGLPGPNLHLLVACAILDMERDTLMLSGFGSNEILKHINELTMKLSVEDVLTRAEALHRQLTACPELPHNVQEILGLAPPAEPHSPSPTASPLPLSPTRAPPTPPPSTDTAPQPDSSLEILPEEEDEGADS
UniProt Q17R31: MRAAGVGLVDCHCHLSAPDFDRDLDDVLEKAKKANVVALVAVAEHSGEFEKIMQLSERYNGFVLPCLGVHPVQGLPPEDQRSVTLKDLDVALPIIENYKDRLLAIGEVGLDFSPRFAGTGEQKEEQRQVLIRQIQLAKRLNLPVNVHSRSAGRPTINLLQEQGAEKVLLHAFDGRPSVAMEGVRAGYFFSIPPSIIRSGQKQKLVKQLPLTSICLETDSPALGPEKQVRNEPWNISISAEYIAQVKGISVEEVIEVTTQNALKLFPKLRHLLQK

Key:
Assay in all cases: log2 fold change, soluble protein after heating vs DMSO (PISA); higher = thermal stabilisation; K562 lysate, 10 uM; active = over 0.2 and 3.5 SD of the protein, either way, in both replicates (recomputed)
alvocidib = compound: CN1CC[C@H](c2c(O)cc(O)c3c(=O)cc(-c4ccccc4Cl)oc23)[C@H](O)C1 [alvocidib]
Procedure, shortened: (§1)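 A 30 min treatment with 10 μM compound was applied to crude K562 extract at 1 mg/mL protein in PBS pH 7.4 with 1 mM MgCl2. Heating for 3 min spanned 48°C-58°C, after which aliquots were pooled, adjusted to 0.5% NP-40 at 4°C and spun at 21,000xg for 90 min. TMTpro 16plex LC-MS/MS of the supernatant, with channel sums equalised, gave values recorded as log-two fold change in thermal stability against solvent controls, from duplicates.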

Tubastatin A = compound: CN1CCc2c(c3ccccc3n2Cc2ccc(C(=O)NO)cc2)C1 [Tubastatin A]
Procedure, shortened: as §1

[1] = compound: CNC(=O)C1=CC=CC=C1NC2=NC(=NC=C2Cl)NC3=C(C=C(C=C3)N4CCOCC4)OC
Procedure, shortened: as §1

defactinib = compound: CNC(=O)c1ccc(Nc2ncc(C(F)(F)F)c(NCc3nccnc3N(C)S(C)(=O)=O)n2)cc1 [defactinib]
Procedure, shortened: as §1

[2] = compound: CNc1nc(-c2ccc3c(N)n[nH]c3c2)cc(N2C[C@@H](C(=O)NC3CCCCC3)CC[C@H]2C)n1
Procedure, shortened: as §1

encorafenib = compound: COC(=O)N[C@@H](C)CNc1nccc(-c2cn(C(C)C)nc2-c2cc(Cl)cc(NS(C)(=O)=O)c2F)n1 [encorafenib]
Procedure, shortened: as §1

[3] = compound: COC(=O)[C@H](CCSC)NC(=O)C1=C(C=C(C=C1)NC[C@H](CS)N)C2=CC=CC=C2
Procedure, shortened: as §1

alisertib = compound: COc1cc(Nc2ncc3c(n2)-c2ccc(Cl)cc2C(c2c(F)cccc2OC)=NC3)ccc1C(=O)O [alisertib]
Procedure, shortened: as §1

[4] = compound: COc1cc2nc(-c3cc(F)ccc3O)nc(N[C@@H]3CNC[C@H]3C(C)(C)O)c2cc1OC
Procedure, shortened: as §1

gefitinib = compound: COc1cc2ncnc(Nc3ccc(F)c(Cl)c3)c2cc1OCCCN1CCOCC1 [gefitinib]
Procedure, shortened: as §1

lapatinib = compound: CS(=O)(=O)CCNCc1ccc(-c2ccc3ncnc(Nc4ccc(OCc5cccc(F)c5)c(Cl)c4)c3c2)o1 [lapatinib]
Procedure, shortened: as §1

pictilisib = compound: CS(=O)(=O)N1CCN(Cc2cc3nc(-c4cccc5[nH]ncc45)nc(N4CCOCC4)c3s2)CC1 [pictilisib]
Procedure, shortened: as §1

crizotinib = compound: C[C@@H](Oc1cc(-c2cnn(C3CCNCC3)c2)cnc1N)c1c(Cl)ccc(F)c1Cl [crizotinib]
Procedure, shortened: as §1

[5] = compound: C[C@H](C1=CC=C(C=C1)C(=O)NC2=C3C=CNC3=NC=C2)N
Procedure, shortened: as §1

duvelisib = compound: C[C@H](Nc1ncnc2nc[nH]c12)c1cc2cccc(Cl)c2c(=O)n1-c1ccccc1 [duvelisib]
Procedure, shortened: as §1

gandotinib = compound: Cc1cc(Nc2cc(CN3CCOCC3)c3nc(C)c(Cc4ccc(Cl)cc4F)n3n2)n[nH]1 [gandotinib]
Procedure, shortened: as §1

tozasertib = compound: Cc1cc(Nc2cc(N3CCN(C)CC3)nc(Sc3ccc(NC(=O)C4CC4)cc3)n2)n[nH]1 [tozasertib]
Procedure, shortened: as §1

doramapimod = compound: Cc1ccc(-n2nc(C(C)(C)C)cc2NC(=O)Nc2ccc(OCCN3CCOCC3)c3ccccc23)cc1 [doramapimod]
Procedure, shortened: as §1

bafetinib = compound: Cc1ccc(NC(=O)c2ccc(CN3CC[C@H](N(C)C)C3)c(C(F)(F)F)c2)cc1Nc1nccc(-c2cncnc2)n1 [bafetinib]
Procedure, shortened: as §1

[6] = compound: Cc1cccc(CC(=O)N2CCc3c2ccc(-c2cn(C)c4ncnc(N)c24)c3F)n1
Procedure, shortened: as §1

Measured: log2 fold change

TAPT1 (UniProt Q6NXT6)
inactive: alvocidib -0.101 | Tubastatin A 0.037 | [1] -0.086 | defactinib 0.047 | [2] 0.056 | encorafenib 0.053 | [3] -0.074 | alisertib -0.016 | [4] -0.006 | gefitinib 0.055 | lapatinib -0.007 | pictilisib 0.025 | crizotinib -0.044 | [5] -0.196 | duvelisib 0.012 | gandotinib 0.057 | tozasertib 0.031 | doramapimod 0.024 | bafetinib 0.01 | [6] 0.093

TBC1D23 (UniProt Q9NUY8)
inactive: alvocidib 0 | Tubastatin A -0.076 | [1] 0.025 | defactinib -0.006 | [2] 0.05 | encorafenib -0.009 | [3] -0.019 | alisertib -0.014 | [4] 0.002 | gefitinib -0.006 | lapatinib -0.007 | pictilisib -0.016 | crizotinib -0.031 | [5] -0.033 | duvelisib -0.012 | gandotinib 0.03 | tozasertib 0.034 | doramapimod 0.017 | bafetinib -0.027 | [6] 0.048

TFIP11 (UniProt Q9UBB9)
active: [3] 0.381
inactive: alvocidib -0.013 | Tubastatin A -0.135 | [1] 0.024 | defactinib 0.061 | [2] -0.023 | encorafenib 0.042 | alisertib 0.062 | [4] 0.013 | gefitinib -0.041 | lapatinib -0.032 | pictilisib 0.061 | crizotinib -0.085 | [5] -0.031 | duvelisib -0.053 | gandotinib -0.097 | tozasertib 0.051 | doramapimod 0.043 | bafetinib -0.114 | [6] 0.06

TAMM41 isoform 3 (UniProt Q96BW9)
inactive: alvocidib -0.041 | Tubastatin A 0.116 | [1] -0.06 | defactinib -0.02 | [2] -0.011 | encorafenib 0.007 | [3] 0.083 | alisertib 0.011 | [4] -0.106 | gefitinib 0.032 | lapatinib 0.048 | pictilisib 0.125 | crizotinib -0.013 | [5] 0.005 | duvelisib 0.014 | gandotinib -0.026 | tozasertib -0.038 | doramapimod -0.044 | bafetinib -0.095 | [6] -0.013

TBCA (UniProt O75347)
inactive: alvocidib 0.014 | Tubastatin A 0.016 | [1] -0.093 | defactinib -0.017 | [2] -0.024 | encorafenib -0.033 | [3] -0.048 | alisertib -0.01 | [4] -0.002 | gefitinib -0.021 | lapatinib 0.014 | pictilisib 0.039 | crizotinib 0.021 | [5] -0.027 | duvelisib 0.012 | gandotinib -0.011 | tozasertib 0.041 | doramapimod 0.031 | bafetinib 0.045 | [6] -0.028

TBC1D2B (UniProt Q9UPU7)
inactive: alvocidib -0.023 | Tubastatin A -0.157 | [1] 0.038 | defactinib 0.04 | [2] -0.047 | encorafenib 0.03 | [3] 0.063 | alisertib 0.011 | [4] 0.103 | gefitinib -0.001 | lapatinib 0.076 | pictilisib 0.006 | crizotinib 0.041 | [5] 0.007 | duvelisib 0.027 | gandotinib -0.096 | tozasertib -0.005 | doramapimod 0.007 | bafetinib -0.057 | [6] 0.052

TESC (UniProt Q96BS2)
inactive: alvocidib -0.037 | Tubastatin A 0.022 | [1] -0.008 | defactinib -0.007 | [2] -0.034 | encorafenib 0.033 | [3] -0.037 | alisertib -0.053 | [4] -0.058 | gefitinib 0.091 | lapatinib -0.03 | pictilisib -0.122 | crizotinib 0 | [5] -0.095 | duvelisib 0.026 | gandotinib -0.066 | tozasertib 0.026 | doramapimod 0.073 | bafetinib 0.048 | [6] 0.037

TCAF1 (UniProt Q9Y4C2)
inactive: alvocidib -0.004 | Tubastatin A -0.084 | [1] 0.009 | defactinib 0.016 | [2] -0.066 | encorafenib 0.011 | [3] 0.126 | alisertib 0.009 | [4] -0.002 | gefitinib -0.008 | lapatinib 0.012 | pictilisib -0.04 | crizotinib -0.024 | [5] 0.024 | duvelisib 0.036 | gandotinib -0.068 | tozasertib 0 | doramapimod -0.006 | bafetinib -0.053 | [6] -0.001

TARS1 (UniProt P26639)
inactive: alvocidib -0.002 | Tubastatin A 0.009 | [1] -0.017 | defactinib -0.01 | [2] 0.015 | encorafenib -0.029 | [3] 0.055 | alisertib 0 | [4] -0.001 | gefitinib -0.031 | lapatinib -0.003 | pictilisib -0.014 | crizotinib 0.002 | [5] -0.018 | duvelisib -0.014 | gandotinib -0.013 | tozasertib -0.004 | doramapimod 0.013 | bafetinib 0.011 | [6] 0.003

TBC1D4 (UniProt O60343)
inactive: alvocidib -0.056 | Tubastatin A -0.01 | [1] 0.007 | defactinib 0.013 | [2] 0.014 | encorafenib -0.01 | [3] 0.003 | alisertib -0.003 | [4] -0.012 | gefitinib 0.016 | lapatinib 0.003 | pictilisib -0.064 | crizotinib 0.016 | [5] -0.028 | duvelisib 0.005 | gandotinib 0.003 | tozasertib 0.051 | doramapimod 0.002 | bafetinib -0.007 | [6] 0.025

TBCC (UniProt Q15814)
inactive: alvocidib -0.02 | Tubastatin A 0.032 | [1] 0.012 | defactinib 0 | [2] -0.016 | encorafenib 0.009 | [3] -0.016 | alisertib -0.032 | [4] 0.01 | gefitinib 0.023 | lapatinib -0.009 | pictilisib -0.059 | crizotinib 0.003 | [5] -0.03 | duvelisib 0 | gandotinib 0.024 | tozasertib 0.013 | doramapimod 0.046 | bafetinib 0.035 | [6] -0.003

TBC1D17 (UniProt Q9HA65)
inactive: alvocidib 0.012 | Tubastatin A -0.04 | [1] 0.003 | defactinib 0.159 | [2] -0.024 | encorafenib 0.068 | [3] -0.056 | alisertib 0.008 | [4] 0.024 | gefitinib -0.06 | lapatinib 0.012 | pictilisib -0.037 | crizotinib -0.001 | [5] 0.033 | duvelisib 0.001 | gandotinib -0.075 | tozasertib 0.041 | doramapimod 0.024 | bafetinib 0.002 | [6] -0.017

TBC1D14 (UniProt Q9P2M4)
inactive: alvocidib -0.033 | Tubastatin A -0.144 | [1] 0.072 | defactinib 0.132 | [2] 0.03 | encorafenib 0.156 | [3] 0.076 | alisertib -0.023 | [4] -0.086 | gefitinib 0.065 | lapatinib 0.081 | pictilisib -0.042 | crizotinib -0.007 | [5] -0.072 | duvelisib -0.063 | gandotinib -0.021 | tozasertib 0.052 | doramapimod 0.069 | bafetinib 0.012 | [6] 0.119

TATDN3 isoform 3 (UniProt Q17R31)
inactive: alvocidib -0.037 | Tubastatin A 0.043 | [1] -0.018 | defactinib -0.06 | [2] 0.024 | encorafenib -0.035 | [3] 0.003 | alisertib 0.013 | [4] -0.008 | gefitinib 0.038 | lapatinib -0.044 | pictilisib -0.039 | crizotinib -0.034 | [5] -0.131 | duvelisib 0.079 | gandotinib 0.077 | tozasertib -0.006 | doramapimod 0.032 | bafetinib -0.063 | [6] 0.097

TFR2 (UniProt Q9UP52)
inactive: alvocidib -0.008 | Tubastatin A -0.001 | [1] -0.007 | defactinib -0.053 | [2] 0.026 | encorafenib 0.02 | [3] -0.006 | alisertib 0.012 | [4] 0 | gefitinib -0.008 | lapatinib -0.031 | pictilisib 0.042 | crizotinib 0.026 | [5] -0.017 | duvelisib -0.008 | gandotinib 0.058 | tozasertib -0.007 | doramapimod -0.02 | bafetinib 0.017 | [6] 0.075

TCERG1 (UniProt O14776)
inactive: alvocidib -0.009 | Tubastatin A -0.005 | [1] -0.005 | defactinib 0.005 | [2] 0.039 | encorafenib 0.001 | [3] 0.026 | alisertib 0.022 | [4] -0.003 | gefitinib -0.008 | lapatinib 0.008 | pictilisib -0.013 | crizotinib 0.043 | [5] -0.026 | duvelisib -0.043 | gandotinib -0.012 | tozasertib 0.006 | doramapimod -0.024 | bafetinib -0.029 | [6] 0.033
